# Measurements: article PMC8202330, “Phosphorylation of the LIR Domain of SCOC Modulates ATG8 Binding Affinity and Specificity” (Journal of Molecular Biology, 2021)
# The chains behind the UniProt entries cited, without tags or fusion partners. Where a name states a change or a piece, a line headed by the entry shows the natural chain unless it says otherwise. A line that says so, or that is headed by a name, gives the form on record, which may keep a tag or linker.
# FLAG-SCOC (isoform 3) (Q9UIL1, form named): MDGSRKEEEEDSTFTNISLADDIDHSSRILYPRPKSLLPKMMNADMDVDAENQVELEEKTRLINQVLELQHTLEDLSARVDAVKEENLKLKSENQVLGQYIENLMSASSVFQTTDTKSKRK
# No constants are given. Whether binding was seen depends on the method and setting. In cells and extracts the contact can be indirect. Some entries that bind do so weakly or less than the wild type. Where a sequence is shown, tags or fusion partners need not be part of it.
# Molecular target: FLAG-SCOC (isoform 3) (human) (UniProt Q9UIL1)
# Test: co-IP; FLAG IP of FLAG-tagged SCOC with Anti-FLAG-M2 affinity agarose (Supplementary Figure 3A)
binder,measurement,value
"FEZ2 (FLAG IP of Supplementary Figure 3A) (protein, UniProt Q9UHY8 1-353) MAADGDWQDFYEFQEPARSLLDQENCNASPEPGAEAGAEAGGGADGFPAPACSLEEKLSLCFRPSDPGAEPPRTAVRPITERSLLQGDEIWNALTDNYGNVMPVDWKSSHTRTLHLLTLNLSEKGVSDSLLFDTSDDEELREQLDMHSIIVSCVNDEPLFTADQVIEEIEEMMQESPDPEDDETPTQSDRLSMLSQEIQTLKRSSTGSYEERVKRLSVSELNEILEEIETAIKEYSEELVQQLALRDELEFEKEVKNSFISVLIEVQNKQKEHKETAKKKKKLKNGSSQNGKNERSHMPGTYLTTVIPYEKKNGPPSVEDLQILTKILRAMKEDSEKVPSLLTDYILKVLCPT",binding,binds
